Results on two substances are retold here after article PMC9199239.

By UniProt entry, the sequences of proteins in these tests, tags left out.
UniProt Q05397: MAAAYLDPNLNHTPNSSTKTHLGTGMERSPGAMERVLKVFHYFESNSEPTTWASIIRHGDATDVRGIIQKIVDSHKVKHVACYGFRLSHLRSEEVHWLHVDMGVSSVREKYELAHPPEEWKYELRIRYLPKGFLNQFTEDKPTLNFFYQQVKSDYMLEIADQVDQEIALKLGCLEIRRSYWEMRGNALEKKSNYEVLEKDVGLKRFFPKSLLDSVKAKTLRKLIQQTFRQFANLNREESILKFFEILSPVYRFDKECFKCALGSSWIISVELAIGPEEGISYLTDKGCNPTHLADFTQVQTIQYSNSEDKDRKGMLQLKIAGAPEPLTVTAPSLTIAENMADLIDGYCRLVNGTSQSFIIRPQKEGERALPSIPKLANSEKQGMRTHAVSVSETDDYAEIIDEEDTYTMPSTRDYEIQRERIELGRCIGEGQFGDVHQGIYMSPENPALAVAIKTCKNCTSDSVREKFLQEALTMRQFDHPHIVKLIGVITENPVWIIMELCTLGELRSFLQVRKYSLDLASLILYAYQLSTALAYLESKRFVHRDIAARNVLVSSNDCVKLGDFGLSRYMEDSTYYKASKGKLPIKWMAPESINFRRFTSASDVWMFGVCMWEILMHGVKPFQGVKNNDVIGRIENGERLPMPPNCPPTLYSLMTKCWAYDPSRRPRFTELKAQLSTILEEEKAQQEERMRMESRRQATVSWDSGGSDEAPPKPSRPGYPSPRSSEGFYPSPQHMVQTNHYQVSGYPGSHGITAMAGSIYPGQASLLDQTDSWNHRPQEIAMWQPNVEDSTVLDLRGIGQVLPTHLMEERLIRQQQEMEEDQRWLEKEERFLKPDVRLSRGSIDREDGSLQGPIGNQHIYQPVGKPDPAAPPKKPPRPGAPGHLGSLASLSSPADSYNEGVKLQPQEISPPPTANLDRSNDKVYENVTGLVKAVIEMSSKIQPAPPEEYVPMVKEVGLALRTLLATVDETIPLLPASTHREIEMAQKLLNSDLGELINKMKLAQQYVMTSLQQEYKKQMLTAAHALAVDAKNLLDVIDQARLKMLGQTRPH
UniProt Q07157: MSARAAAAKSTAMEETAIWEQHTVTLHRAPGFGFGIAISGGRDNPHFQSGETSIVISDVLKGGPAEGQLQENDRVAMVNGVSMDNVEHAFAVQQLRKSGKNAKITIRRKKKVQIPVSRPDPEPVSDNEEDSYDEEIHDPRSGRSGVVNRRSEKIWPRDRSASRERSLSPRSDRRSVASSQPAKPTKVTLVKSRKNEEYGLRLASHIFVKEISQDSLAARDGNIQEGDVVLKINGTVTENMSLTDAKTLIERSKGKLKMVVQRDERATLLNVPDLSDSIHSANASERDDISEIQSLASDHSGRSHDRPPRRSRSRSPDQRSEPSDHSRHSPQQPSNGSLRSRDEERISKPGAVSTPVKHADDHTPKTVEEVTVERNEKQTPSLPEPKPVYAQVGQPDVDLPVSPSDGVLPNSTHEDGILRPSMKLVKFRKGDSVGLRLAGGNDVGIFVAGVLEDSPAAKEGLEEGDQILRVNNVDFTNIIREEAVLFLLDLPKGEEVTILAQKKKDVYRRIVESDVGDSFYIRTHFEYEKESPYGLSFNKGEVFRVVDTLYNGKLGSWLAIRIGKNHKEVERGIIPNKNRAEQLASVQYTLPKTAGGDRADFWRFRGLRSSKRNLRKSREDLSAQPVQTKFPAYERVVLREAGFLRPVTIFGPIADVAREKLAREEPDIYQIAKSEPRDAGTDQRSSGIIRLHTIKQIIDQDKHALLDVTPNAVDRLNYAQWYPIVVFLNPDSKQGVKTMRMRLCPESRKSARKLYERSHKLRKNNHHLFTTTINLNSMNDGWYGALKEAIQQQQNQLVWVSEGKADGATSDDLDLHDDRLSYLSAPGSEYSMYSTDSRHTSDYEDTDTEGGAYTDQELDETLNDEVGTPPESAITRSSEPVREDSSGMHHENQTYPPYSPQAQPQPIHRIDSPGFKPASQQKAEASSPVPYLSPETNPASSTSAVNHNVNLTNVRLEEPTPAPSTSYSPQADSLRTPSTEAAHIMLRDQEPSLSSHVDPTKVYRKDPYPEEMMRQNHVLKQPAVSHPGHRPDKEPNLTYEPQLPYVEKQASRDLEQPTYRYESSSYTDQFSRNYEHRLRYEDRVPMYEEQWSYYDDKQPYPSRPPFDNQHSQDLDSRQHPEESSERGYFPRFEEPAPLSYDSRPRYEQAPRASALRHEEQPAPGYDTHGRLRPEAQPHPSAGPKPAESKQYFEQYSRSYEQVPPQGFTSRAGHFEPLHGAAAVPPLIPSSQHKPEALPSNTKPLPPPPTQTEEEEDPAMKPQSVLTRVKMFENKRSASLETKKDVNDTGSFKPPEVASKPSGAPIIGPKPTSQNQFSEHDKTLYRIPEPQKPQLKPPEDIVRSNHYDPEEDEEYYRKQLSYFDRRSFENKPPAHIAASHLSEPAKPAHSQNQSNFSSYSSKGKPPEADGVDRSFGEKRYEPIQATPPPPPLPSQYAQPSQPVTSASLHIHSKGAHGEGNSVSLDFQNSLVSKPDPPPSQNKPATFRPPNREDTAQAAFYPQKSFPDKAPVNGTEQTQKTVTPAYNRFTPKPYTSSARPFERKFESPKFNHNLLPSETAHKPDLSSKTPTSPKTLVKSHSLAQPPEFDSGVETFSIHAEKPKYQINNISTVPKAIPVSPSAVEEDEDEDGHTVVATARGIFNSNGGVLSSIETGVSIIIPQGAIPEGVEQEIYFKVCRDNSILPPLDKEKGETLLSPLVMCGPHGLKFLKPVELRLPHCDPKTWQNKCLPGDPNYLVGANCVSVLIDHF

Changes are numbered by the printed parent chain. No constants are given. Whether binding was seen depends on the method and setting. Binding seen in cells or lysates may run through a third protein. Some binding calls cover weakened binding; strength is not graded here. For part of these data: Tags and fused reporters may be left off the sequences shown.

Assay [1] has as its target T1, Flag-tagged human OCLN (wild type) (human) (UniProt Q16625).
T1 sequence: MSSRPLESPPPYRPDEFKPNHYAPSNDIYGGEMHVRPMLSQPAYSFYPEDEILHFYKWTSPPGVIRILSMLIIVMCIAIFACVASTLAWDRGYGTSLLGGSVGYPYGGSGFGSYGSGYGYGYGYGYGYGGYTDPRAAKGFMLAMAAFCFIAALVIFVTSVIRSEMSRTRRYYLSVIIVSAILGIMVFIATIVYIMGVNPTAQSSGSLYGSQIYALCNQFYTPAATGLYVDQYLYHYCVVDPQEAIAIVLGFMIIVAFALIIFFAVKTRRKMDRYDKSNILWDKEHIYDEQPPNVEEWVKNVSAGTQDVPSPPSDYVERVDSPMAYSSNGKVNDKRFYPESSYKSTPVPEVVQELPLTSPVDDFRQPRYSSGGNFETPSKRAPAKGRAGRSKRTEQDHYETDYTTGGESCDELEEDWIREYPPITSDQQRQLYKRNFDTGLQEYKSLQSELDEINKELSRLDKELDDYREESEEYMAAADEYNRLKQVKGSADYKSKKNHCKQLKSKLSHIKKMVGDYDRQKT
Kind of assay: co-IP; anti-Flag immunoprecipitation of Flag-OCLN or OCLN-4YF from H1299 derivative cells, with or without H2O2 (1 mM, 30 min; 0.5 mM in DUSP3TR/OCLN cells with or without tetracycline for 12 h); immunoblot of the immunocomplexes. (In general: Immunoblotting shows a protein as a band on a membrane.)

The target of assay [2] is T2, Flag-tagged human OCLN (Y287/315/325/443F) (human) (UniProt Q16625).
T2 sequence: T1 sequence with Y287F, Y315F, Y325F, Y443F
The assay is described as above.

Assay [3] deals with T3, Occludin (OCLN), endogenous in H1299-DUSP3TR and H1299-DUSP3-CSTR cells (human (endogenous in H1299)) (UniProt Q16625).
T3 sequence: T1 sequence
Briefly: co-IP; endogenous OCLN and ZO-1 immunoprecipitated from H1299-DUSP3TR and H1299-DUSP3-CSTR cells treated with or without tetracycline (1 μg/ml, 8 h); immunoblot of the immunocomplexes.

Turning to “Focal adhesion kinase (FAK), endogenous in H1299 cells (from UniProt Q05397 1-1052) (enzyme)”, the binding result in assay [1] and in assay [2] was “binds” each time.

Turning to “Zonula occludens-1 (ZO-1), endogenous in H1299-DUSP3TR and H1299-DUSP3-CSTR cells (from UniProt Q07157 1-1748)”, the binding entry in assay [3] is “binds”.
